Data as given in PubChem BioAssay AID1159578 (Peter MacCallum Cancer Centre, 2015)
Assay: 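Knock-downs that alter how fast lymphatic endothelial cells migrate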 (primary screen). System: human lymphatic endothelial cells. Reagent: siRNA pool against human genes, 40 nM. Duration: 48 h after transfection. Detection: 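Cells stained with dye and imaged after a scratch; covered wound area and nuclei counted, duplicates averaged, migration set against mock wells and turned into a robust z-score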. Direction: migration robust z-score: higher = faster migration into the scratch; nuclei per well: higher = more cells in the well. Rule for the call: 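Migration changed when robust z exceeds 2 or falls below -2 and mean nuclei number is at least 3300; otherwise not called changed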. Meaning of the calls: active = migration changed; inactive = no migration change, or too few cells.
The whole screen tested about 18,000 reagents; shown is a random part of them. In the full data, about 1,030 (5.7%) are marked active. 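Inactive calls also include pools with fewer than 3300 nuclei, whose migration was not assessed.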 Raw values vary from plate to plate and are shown uncorrected. Unmarked entries are inactive. Further read-outs or replicates are left out here. Reagent sequences are not shown.

TNP1 → migration robust z-score: 1.6; migration class with cell-count check: migration z between -2 and 2; enough cells; nuclei per well, duplicate mean: 7485
B3GNT7 → migration robust z-score: -0.06; migration class with cell-count check: migration z between -2 and 2; enough cells; nuclei per well, duplicate mean: 4984
CA2 → migration robust z-score: 1.4; migration class with cell-count check: migration z between -2 and 2; enough cells; nuclei per well, duplicate mean: 5580
ZDHHC20 → migration robust z-score: -0.71; migration class with cell-count check: migration z between -2 and 2; enough cells; nuclei per well, duplicate mean: 5635
NEURL4 → migration robust z-score: -0.33; migration class with cell-count check: migration z between -2 and 2; enough cells; nuclei per well, duplicate mean: 5966
STK17B → migration robust z-score: -0.42; migration class with cell-count check: migration z between -2 and 2; enough cells; nuclei per well, duplicate mean: 5298
LPCAT3 → migration robust z-score: -1.86; migration class with cell-count check: under 3300 nuclei; migration not judged; nuclei per well, duplicate mean: 2745
VDAC3 → migration robust z-score: 1.3; migration class with cell-count check: migration z between -2 and 2; enough cells; nuclei per well, duplicate mean: 5604
WDR48 → migration robust z-score: 1.81; migration class with cell-count check: migration z between -2 and 2; enough cells; nuclei per well, duplicate mean: 5960
RTN2 → migration robust z-score: -1.57; migration class with cell-count check: migration z between -2 and 2; enough cells; nuclei per well, duplicate mean: 4952
MIOS → migration robust z-score: -0.63; migration class with cell-count check: migration z between -2 and 2; enough cells; nuclei per well, duplicate mean: 5278
CBLIF → migration robust z-score: -0.28; migration class with cell-count check: migration z between -2 and 2; enough cells; nuclei per well, duplicate mean: 5060

Sorted by “nuclei per well, duplicate mean” (highest first): some entries from above
ZDHHC20 → migration robust z-score: -0.71; migration class with cell-count check: migration z between -2 and 2; enough cells; nuclei per well, duplicate mean: 5635
CA2 → migration robust z-score: 1.4; migration class with cell-count check: migration z between -2 and 2; enough cells; nuclei per well, duplicate mean: 5580
